Measurements reported in PubChem BioAssay AID1259405 (NCATS, 2018)

- Screen: 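Knock-downs that lift recombinant protein yield in hamster ovary cells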 (primary screen)
- Cells: Chinese hamster CHO-K1 ovary cells with stable secreted eGFP expression
- Reagent: single siRNA against mouse genes, 0.8 pmol siRNA per well (2 µl of 400 nM stock)
- Duration: 3 days
- Measurement: 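Percent of the per-plate non-targeting control median for intracellular GFP per well by laser scanning cytometry and for cell viability by ATP luminescence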
- Scale: GFP, % of control: higher = more GFP per well, higher productivity; viability (ATP), % of control: higher = more viable cells (more ATP)
- Call rule: 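a knock-down is called active if GFP reaches 120% or more of non-targeting control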
The whole screen tested about 50,000 reagents; shown is a random part of them. Of all reagents, about 4,000 (8%) got an active call. 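Mouse siRNA library applied to hamster cells; one well for each siRNA.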 Reagents against one gene are numbered here. Reagent sequences are not shown.

GFP, % of control | viability (ATP), % of control | outcome | Target gene | reagent no.
98.1 | 73.8 | inactive | Tfrc | 1
72.7 | 69.8 | inactive | Tfrc | 2
60.1 | 58.6 | inactive | Tfrc | 3
88.4 | 59.4 | inactive | Dusp21 | 1
83.7 | 85.7 | inactive | Dusp21 | 2
74.1 | 98.6 | inactive | Dusp21 | 3
110 | 102 | inactive | Or52k2 | 1
89.9 | 91.4 | inactive | Or52k2 | 2
80.2 | 93.9 | inactive | Or52k2 | 3
110 | 85.5 | inactive | Ecpas | 1
57.2 | 63 | inactive | Ecpas | 2
66.3 | 76.1 | inactive | Ecpas | 3
173 | 77.9 | active | Olfml2b | 1
51.2 | 60.9 | inactive | Olfml2b | 2
90.4 | 114 | inactive | Olfml2b | 3
81.9 | 68.3 | inactive | Siglec1 | 1
90.5 | 82.9 | inactive | Siglec1 | 2
98.3 | 80.9 | inactive | Tlr8 | 1
69.9 | 58.7 | inactive | Tlr8 | 2
63.4 | 63.4 | inactive | Tlr8 | 3
58.4 | 91.5 | inactive | Timp4 | 1
46 | 72.9 | inactive | Timp4 | 2
56.9 | 74.4 | inactive | Timp4 | 3
59.5 | 50.8 | inactive | Col5a2 | 1
108 | 101 | inactive | Col5a2 | 2
56.3 | 61.4 | inactive | Col5a2 | 3
85.7 | 50.7 | inactive | Ndrg2 | 1
76.5 | 81.2 | inactive | Ndrg2 | 2
88.1 | 98.1 | inactive | Ndrg2 | 3
103 | 86.5 | inactive | Arl10 | 1
126 | 82 | active | Arl10 | 2
64.1 | 64.6 | inactive | Arl10 | 3
99.8 | 72.5 | inactive | Tmem35a | 1
83.9 | 73.9 | inactive | Tmem35a | 2
65.9 | 93.2 | inactive | Tmem35a | 3
66.9 | 70 | inactive | Syncrip | 1
86.2 | 98.6 | inactive | Syncrip | 2
52.3 | 49 | inactive | Ccl9 | 1
62.4 | 75.9 | inactive | Ccl9 | 2
43.5 | 58.9 | inactive | Ccl9 | 3
98.8 | 75.3 | inactive | Scn9a | 1
81.2 | 60.6 | inactive | Scn9a | 2
84 | 64.9 | inactive | Scn9a | 3
87.6 | 79.3 | inactive | Defb6 | 1
52.8 | 43.6 | inactive | Defb6 | 2
48.4 | 34.5 | inactive | Defb6 | 3
112 | 108 | inactive | Cd24a | 1
75.6 | 81.6 | inactive | Cd24a | 2
95.5 | 98.1 | inactive | Cd24a | 3
103 | 69.5 | inactive | Wnt11 | 1
97.7 | 57.7 | inactive | Wnt11 | 2
44.7 | 67.7 | inactive | Wnt11 | 3
82.4 | 87.4 | inactive | Mxd1 | 1
77.9 | 84.2 | inactive | Mxd1 | 2
54.1 | 70.5 | inactive | Mxd1 | 3
50.9 | 52.9 | inactive | Ranbp1 | 1
77.5 | 75.8 | inactive | Ranbp1 | 2
70.1 | 54.8 | inactive | Ranbp1 | 3
